According to patent US20170189504A1, “NOVEL PEPTIDES AND COMBINATION OF PEPTIDES FOR USE IN IMMUNOTHERAPY AGAINST VARIOUS CANCERS” (immatics biotechnologies GmbH, priority 2015, published 2017):
For part of these data: Expression grades refer to the transcript from which the peptide derives; gene names, where given, were looked up from the sequence.

How the values were obtained:
HLA-A*02 = assay: Identification and relative LC-MS quantitation of HLA-A*02-presented tumor-associated peptides on tissue samples (presentation profiles, Tables 13A, 13B, 15, FIG. 1); set-up: species or system human; key to Presentation score NHL / Presentation score CLL / Presentation score BRCA / Presentation score AML / Presentation score GB / Presentation score NSCLC / Presentation score GBC_CCC / Presentation score UEC / Presentation score MEL / Presentation score OSCAR / Presentation score GC / Presentation score UBC / Presentation score OC / Presentation score RCC / Presentation score CRC / Presentation score PCA / Presentation score HCC / Presentation score PC / Presentation score SCLC: specifically presented on tumors (++++); very highly over-presented on tumors compared to a panel of normal tissues (+++); highly over-presented on tumors compared to a panel of normal tissues (++); over-presented on tumors compared to a panel of normal tissues (+); details: for Peptide Presentation on cancer entities: HLA-A*02-binding tumor-associated peptides
source genes (mRNA) = assay: Gene and exon expression of source genes, TCGA tumor samples compared with normal tissue samples (Lonsdale, 2013) (Table 17); set-up: species or system human

Substance: 30: peptide found in OARD1 (gene looked up) (AMIEEVFEA; listed as Homo sapiens) [compound 30]
- Presentation score BRCA (HLA-A*02; HLA-A*02 peptides, breast cancer (N = 17) vs panel of normal tissues (N = 262)): +++
- Presentation score MEL (HLA-A*02; HLA-A*02 peptides, melanoma (N = 7) vs panel of normal tissues (N = 262)): +++
- Presentation score OC (HLA-A*02; HLA-A*02 peptides, ovarian cancer (N = 20) vs panel of normal tissues (N = 262)): +++
- Presentation score PCA (HLA-A*02; HLA-A*02 peptides, prostate cancer and benign prostate hyperplasia (N = 39) vs panel of normal tissues (N = 262)): +++
- Presentation score SCLC (HLA-A*02; HLA-A*02 peptides, small cell lung cancer (N = 19) vs panel of normal tissues (N = 262)): +++
- Presentation score UBC (HLA-A*02; HLA-A*02 peptides, urinary bladder cancer (N = 16) vs panel of normal tissues (N = 262)): +++
- Peptide Presentation on cancer entities (HLA-A*02; Table 13A, cancer entities on which the peptide was found presented): PCA, OC, SCLC, UBC, BRCA, MEL
- Peptide Presentation on cancer entities (HLA-A*02; Table 13B, presentation on additional cancer entities): NSCLC, HCC, UEC, GBC_CCC, NHL, HNSCC
- Target coverage: over-expression category of source gene, LAML (source genes (mRNA); Acute Myeloid Leukemia (N = 173), cutoff more than 2-fold above highest 75% percentile of normal tissue samples): A (>=50% of tumors above the cutoff)
- Target coverage: over-expression category of source gene, BLCA (source genes (mRNA); Bladder urothelial carcinoma (N = 408), cutoff more than 2-fold above highest 75% percentile of normal tissue samples): B (>= 20% of tumors above the cutoff, but <50%)
- Target coverage: over-expression category of source gene, BRCA (source genes (mRNA); Breast cancer (N = 1104), cutoff more than 2-fold above highest 75% percentile of high and medium risk normal tissue samples): A (>=50% of tumors above the cutoff)
- Target coverage: over-expression category of source gene, CHOL (source genes (mRNA); Cholangiocarcinoma (N = 36), cutoff more than 2-fold above highest 75% percentile of normal tissue samples): A (>=50% of tumors above the cutoff)
- Target coverage: over-expression category of source gene, KIRC (source genes (mRNA); Clear cell kidney carcinoma (N = 534), cutoff more than 2-fold above highest 75% percentile of normal tissue samples): A (>=50% of tumors above the cutoff)
- Target coverage: over-expression category of source gene, READ (source genes (mRNA); Colon and rectal adenocarcinoma (N = 167), cutoff more than 2-fold above highest 75% percentile of normal tissue samples): A (>=50% of tumors above the cutoff)
- Target coverage: over-expression category of source gene, COAD (source genes (mRNA); Colon and rectal adenocarcinoma (N = 462), cutoff more than 2-fold above highest 75% percentile of normal tissue samples): A (>=50% of tumors above the cutoff)
- Target coverage: over-expression category of source gene, ESCA (source genes (mRNA); Esophageal cancer (N = 185), cutoff more than 2-fold above highest 75% percentile of normal tissue samples): B (>= 20% of tumors above the cutoff, but <50%)
- Target coverage: over-expression category of source gene, GBM (source genes (mRNA); Glioblastoma multiforme (N = 169), cutoff more than 2-fold above highest 75% percentile of normal tissue samples): A (>=50% of tumors above the cutoff)
- Target coverage: over-expression category of source gene, KICH (source genes (mRNA); Kidney chromophobe (N = 66), cutoff more than 2-fold above highest 75% percentile of normal tissue samples): A (>=50% of tumors above the cutoff)
- Target coverage: over-expression category of source gene, LIHC (source genes (mRNA); Liver hepatocellular carcinoma (N = 374), cutoff more than 2-fold above highest 75% percentile of normal tissue samples): A (>=50% of tumors above the cutoff)
- Target coverage: over-expression category of source gene, LGG (source genes (mRNA); Lower grade glioma (N = 534), cutoff more than 2-fold above highest 75% percentile of normal tissue samples): A (>=50% of tumors above the cutoff)
- Target coverage: over-expression category of source gene, LUAD (source genes (mRNA); Lung adenocarcinoma (N = 517), cutoff more than 2-fold above highest 75% percentile of normal tissue samples): A (>=50% of tumors above the cutoff)
- Target coverage: over-expression category of source gene, LUSC (source genes (mRNA); Lung squamous cell carcinoma (N = 503), cutoff more than 2-fold above highest 75% percentile of normal tissue samples): A (>=50% of tumors above the cutoff)
- Target coverage: over-expression category of source gene, DLBC (source genes (mRNA); Lymphoid neoplasm diffuse large B-cell lymphoma (N = 48), cutoff more than 2-fold above highest 75% percentile of normal tissue samples): A (>=50% of tumors above the cutoff)
- Target coverage: over-expression category of source gene, OV (source genes (mRNA); Ovarian serous cystadenocarcinoma (N = 309), cutoff more than 2-fold above highest 75% percentile of normal tissue samples): B (>= 20% of tumors above the cutoff, but <50%)
- Target coverage: over-expression category of source gene, PAAD (source genes (mRNA); Pancreatic ductal adenocarcinoma (N = 179), cutoff more than 2-fold above highest 75% percentile of normal tissue samples): A (>=50% of tumors above the cutoff)
- Target coverage: over-expression category of source gene, KIRP (source genes (mRNA); Papillary kidney carcinoma (N = 291), cutoff more than 2-fold above highest 75% percentile of normal tissue samples): A (>=50% of tumors above the cutoff)
- Target coverage: over-expression category of source gene, PRAD (source genes (mRNA); Prostate adenocarcinoma (N = 498), cutoff more than 2-fold above highest 75% percentile of normal tissue samples): A (>=50% of tumors above the cutoff)
- Target coverage: over-expression category of source gene, SKCM (source genes (mRNA); Skin cutaneous melanoma (N = 473), cutoff more than 2-fold above highest 75% percentile of normal tissue samples): A (>=50% of tumors above the cutoff)
- Target coverage: over-expression category of source gene, STAD (source genes (mRNA); Stomach adenocarcinoma (N = 415), cutoff more than 2-fold above highest 75% percentile of normal tissue samples): A (>=50% of tumors above the cutoff)
- Target coverage: over-expression category of source gene, UCEC (source genes (mRNA); Uterine corpus endometrial carcinoma (N = 546), cutoff more than 2-fold above highest 75% percentile of normal tissue samples): A (>=50% of tumors above the cutoff)
